Binding data for 1 molecule are collected here from paper PMC3275627.

The target in the test is T1, Set3-Myc fusion protein (S. pombe) (UniProt Q10362).
T1 sequence: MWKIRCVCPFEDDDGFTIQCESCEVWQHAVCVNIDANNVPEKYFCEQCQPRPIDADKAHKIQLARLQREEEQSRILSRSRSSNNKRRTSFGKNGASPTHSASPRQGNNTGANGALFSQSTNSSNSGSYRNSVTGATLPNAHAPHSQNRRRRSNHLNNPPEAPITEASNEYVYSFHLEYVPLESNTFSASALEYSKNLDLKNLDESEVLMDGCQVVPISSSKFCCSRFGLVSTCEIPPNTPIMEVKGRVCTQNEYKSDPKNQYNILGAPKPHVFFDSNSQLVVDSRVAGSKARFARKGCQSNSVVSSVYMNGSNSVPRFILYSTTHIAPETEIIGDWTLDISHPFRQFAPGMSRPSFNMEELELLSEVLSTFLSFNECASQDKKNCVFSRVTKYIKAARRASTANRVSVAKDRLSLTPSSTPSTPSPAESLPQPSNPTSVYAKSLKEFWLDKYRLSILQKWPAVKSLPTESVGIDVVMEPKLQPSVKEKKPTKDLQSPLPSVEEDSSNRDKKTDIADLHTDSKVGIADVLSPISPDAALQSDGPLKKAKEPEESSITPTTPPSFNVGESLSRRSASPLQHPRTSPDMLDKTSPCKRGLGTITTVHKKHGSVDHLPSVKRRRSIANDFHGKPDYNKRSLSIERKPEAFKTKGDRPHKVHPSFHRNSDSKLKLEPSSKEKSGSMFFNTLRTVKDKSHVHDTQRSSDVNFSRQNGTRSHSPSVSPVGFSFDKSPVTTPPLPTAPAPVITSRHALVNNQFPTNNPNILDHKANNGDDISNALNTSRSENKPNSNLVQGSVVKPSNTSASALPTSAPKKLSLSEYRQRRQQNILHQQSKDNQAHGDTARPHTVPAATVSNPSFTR
Description: co-IP; S. pombe cells expressing both tagged proteins, lysed under native conditions (1% IGEPAL CA630, 150 mM NaCl, 50 mM Tris-HCl pH 8.0); anti-Myc immunoprecipitation on Protein G Dynabeads, immunoblot with anti-HA (per results and legend). A general note: In western blotting, separated proteins are transferred to a membrane and probed.

These are yes or no findings as the source states them, for the method shown. In cells and extracts the contact can be indirect. Some entries that bind do so weakly or less than the wild type. Sequences can lack the tags named with a protein.

B1: Hif2-HA fusion protein (protein, UniProt O74845 1-564)
chain: MDTNQVNYIIWRYLKECGYSHTKFAFERETGIQNLDKQWGSTCQVGALVEILQKGLQYVELEKHYVDNHSSNEEASKTSIDGESLVNENPCKLPFYLTVPHICETTLTKADSTNGFCEHNNSNDHQLKILQDKGSGSPSSPVMPFKDKIEKRDIDITMADESNVEKDPARPIAVYNSSPVTEITEIKQVTFTGGEDIKSDFFKVIPTKHPVTCADWRPLLQENYHVYEFSIGMTNATLASVSICEEQNDFKAKTDYCLQSSFDNQDITGVAWNNSGSFLAYAFFSGVIEIYDSHGSQILSFHNNKGPVLSLKWSGTDTYLAAGSADGTITLFDQLKQTQYSIDTLASSVLDIEWISFDEFVTSDVEGSLRVYKVDGKAPVSTVSHAHDNSIVALRYNLRISLLLTASSDTTVKLWSRGDAGAFECLHVFSFSSPVNCIDWNLREGTPILAVASNSIVSMYNAISLQQLAVFMRHTAPVSALSFSHNGRYLATGDTSGGVCIWSCKTAKLFKELGSDNSELIAVTNVLPEEQVNFLRWSFDDKDLLIGKQKKEIICCCDFLHDSL
As to B1, the binding result is given as “binds”.
